Results taken from patent US8686115B2, “Compositions and methods for quantitatively monitoring lipids” (The Board of Trustees of the University of Illinois, priority 2009, dated 2014).

Experiment: Spectrofluorometry of sensor with LUVs (F450, F450/F520)
Format: binding

B1: DAN-eENTH: eENTH (M10C, C96A, S4W) linked via C10 to 2-dimethylamino-6-acyl-naphthalene (DAN); PtdIns(4,5)P2 sensor (conjugate)
chain: MSTWSLRRQCKNIVHNYSEAEIKVREATSNDPWGPSSSLMSEIADLTYNVVAFSEIMSMIWKRLNDHGKNWRHVYKAMTLMEYLIKTGSERVSQQAKENMYAVQTLKDFQYVDRDGKDQGVNVREKAKQLVALLRDEDRLREERAHALKTKEKLAQTA
modifications: DAN fluorophore on Cys10; Modified ENTH domain of Epsin 1.
notes: eENTH (M10C, C96A, S4W) linked via C10 to 2-dimethylamino-6-acyl-naphthalene (DAN); PtdIns(4,5)P2 sensor
LUV, FIG. 4c
  (F450/F520)max: 5.0+/−0.3
POPC/POPS/PtdIns(4,5)P2 (80-x:20:x) LUV, not with vesicles containing any other phosphoinositide
  change in fluorescence emission upon membrane binding: dramatic blue-shift with a maximal increase in emission intensity (F) at 460 nm
